PubChem BioAssay AID504791 – Drosophila RNAi Screening Center | 2011
In all, the deposit lists about 23,000 reagents; this is an unselected part of those with a known target gene and a result. Over the whole deposit, 199 (0.86%) are marked active. 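Plate-scaled ratios behind the calls are not deposited; printed light signals are raw; many rows marked increased or decreased are still called inactive.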 Not given: the direction of the score.

Aim: 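Factors in Argonaute-based small RNA production and activity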 (primary screen)
Cells: Drosophila S2-derived reporter cells
Knock-down reagent: long dsRNA against Drosophila genes, about 150-250 ng dsRNA per well (siRNA assay); about 80-120 ng (miRNA assay)
Duration: about 5 days (siRNA assay); about 4 days (miRNA assay)
Challenge: copper sulfate induction of reporters: 25 µM (siRNA assay); 200 mM stated (miRNA assay), 1-2 days before reading
Detection: 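Per-well ratio of Renilla over firefly light, expressed relative to that plate's average ratio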
Rule for the call: 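First-pass picks had plate-scaled ratios over 1.5 for the siRNA assay, over 1.6 for the miRNA assay, or under 0.6; two distinct dsRNAs had to score alike on retest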

| gene knocked down | amplicon | stable siRNA reporter change | stable assay Renilla, run 1 (luminescence) | stable assay firefly, run 1 (luminescence) | activity call |
| --- | --- | --- | --- | --- | --- |
| Tsp42Ed (Tetraspanin 42Ed) | DRSC05940 | – | 6723 | 5.17e5 | inactive |
| Sfp53D (Seminal fluid protein 53D) | DRSC05625 | – | 5716 | 4.54e5 | inactive |
| CG15745 (retired record) | DRSC19711 | – | 4311 | 3.51e5 | inactive |
| Myo61F (Myosin 61F) | DRSC22144 | – | 9395 | 5.58e5 | inactive |
| CG42335 | DRSC14597 | – | 7371 | 3.61e5 | inactive |
| CG42335 | DRSC15892 | – | 6619 | 3.26e5 | inactive |
| CG5808 | DRSC14124 | – | 8158 | 3.73e5 | inactive |
| Fgop2 (Fibroblast growth factor receptor 1 oncogene partner 2) | DRSC02016 | – | 6760 | 1.30e5 | inactive |
| ERp60 (Endoplasmic reticulum p60) | DRSC07309 | reporter ratio raised past the hit cutoff | 38912 | 4.56e5 | inactive |
| CG3213 | DRSC00576 | – | 4619 | 5.51e5 | inactive |
| CG31797 | DRSC02476 | – | 7575 | 3.84e5 | inactive |
| CG31797 | DRSC02477 | – | 7214 | 4.31e5 | inactive |
| BBS8 (Bardet-Biedl syndrome 8) | DRSC00360 | – | 8014 | 5.15e5 | inactive |
| Peritrophin-15a | DRSC02636 | – | 6155 | 3.64e5 | inactive |
| Srp72 (Signal recognition particle 72) | DRSC15800 | – | 10290 | 4.42e5 | inactive |
| CG11134 | DRSC19384 | – | 3627 | 3.61e5 | inactive |
| Hsp23 (Heat shock protein 23) | DRSC11188 | – | 7494 | 3.35e5 | inactive |
| CG5302 (retired record) | DRSC15764 | – | 6727 | 3.90e5 | inactive |
| CG5302 (retired record) | DRSC15765 | – | 7194 | 4.24e5 | inactive |
| CG5302 (retired record) | DRSC22671 | – | 4563 | 5.15e5 | inactive |
| CG8343 | DRSC04905 | – | 3.09e5 | 1.56e6 | inactive |
| Dbp21E2 (DEAD box protein 21E2) | DRSC00616 | – | 20321 | 2.50e5 | inactive |
| CG31204 | DRSC15106 | – | 7742 | 5.72e5 | inactive |
| sog (short gastrulation) | DRSC20379 | – | 6582 | 4.96e5 | inactive |
| Obp51a (Odorant-binding protein 51a) | DRSC22412 | – | 4399 | 4.38e5 | inactive |
| ms(2)35Ci (male sterile (2) 35Ci) | DRSC01460 | – | 5654 | 3.69e5 | inactive |
| CG15376 (retired record) | DRSC18046 | – | 6084 | 4.79e5 | inactive |
| CG12581 | DRSC12206 | – | 9007 | 2.71e5 | inactive |
| CG12581 | DRSC12207 | – | 7803 | 4.20e5 | inactive |
| CG6763 | DRSC16110 | – | 6898 | 3.11e5 | inactive |
| CG10492 | DRSC02064 | – | 1.59e5 | 9.67e5 | inactive |
| 5-HT7 (5-hydroxytryptamine (serotonin) receptor 7) | DRSC12635 | – | 7235 | 4.21e5 | inactive |
| olf413 | DRSC11543 | – | 7183 | 5.79e5 | inactive |
| olf413 | DRSC11679 | – | 5802 | 4.34e5 | inactive |
| olf413 | DRSC11721 | – | 6662 | 3.60e5 | inactive |
| olf413 | DRSC11833 | – | 5203 | 3.75e5 | inactive |
| CG30192 | DRSC03977 | – | 5191 | 3.48e5 | inactive |
| CG9717 | DRSC16543 | – | 6304 | 3.31e5 | inactive |
| timeout | DRSC12950 | – | 4964 | 4.14e5 | inactive |
| timeout | DRSC17078 | – | 7476 | 4.68e5 | inactive |
| timeout | DRSC17079 | – | 7903 | 4.95e5 | inactive |
| timeout | DRSC17080 | – | 7455 | 5.67e5 | inactive |
| timeout | DRSC17081 | – | 6294 | 4.11e5 | inactive |
| timeout | DRSC21535 | – | 10483 | 6.18e5 | inactive |
| CG17169 | DRSC20905 | – | 5354 | 4.40e5 | inactive |
| mey (morpheyus) | DRSC14468 | – | 9859 | 5.32e5 | inactive |
| Ppr-Y | DRSC20892 | – | 4288 | 3.42e5 | inactive |
| CG6138 | DRSC02933 | – | 8242 | 4.16e5 | inactive |
| CG34278 | DRSC13208 | – | 4591 | 4.32e5 | inactive |
| ppk25 (pickpocket 25) | DRSC04973 | – | 6843 | 3.32e5 | inactive |

Looked up above.
Entry of Tsp42Ed (Tetraspanin 42Ed) [DRSC05940] in “activity call”: inactive
Value of Obp51a (Odorant-binding protein 51a) [DRSC22412] under “stable assay firefly, run 1 (luminescence)”: 4.38e5
For “activity call”, CG15376 (retired record) [DRSC18046] has inactive
For “stable assay firefly, run 1 (luminescence)”, Sfp53D (Seminal fluid protein 53D) [DRSC05625] is entered as 4.54e5
Result of CG30192 [DRSC03977] in “stable assay firefly, run 1 (luminescence)”: 3.48e5
CG5302 (retired record) [DRSC15764], activity call = inactive

Continued:
| gene knocked down | amplicon | stable siRNA reporter change | stable assay Renilla, run 1 (luminescence) | stable assay firefly, run 1 (luminescence) | activity call |
| --- | --- | --- | --- | --- | --- |
| Pde11 (Phosphodiesterase 11) | DRSC02028 | – | 4612 | 3.55e5 | inactive |
| Pde11 (Phosphodiesterase 11) | DRSC02460 | – | 5358 | 4.21e5 | inactive |
| CG13800 (retired record) | DRSC08334 | – | 7318 | 4.33e5 | inactive |
| Ugt36D1 (UDP-glycosyltransferase family 36 member D1) | DRSC02600 | – | 9551 | 1.66e6 | inactive |
| CG10068 | DRSC12508 | – | 8114 | 3.86e5 | inactive |
| CG8170 | DRSC07087 | – | 5348 | 2.63e5 | inactive |
| babos | DRSC03923 | – | 6966 | 4.89e5 | inactive |
| babos | DRSC04397 | – | 20642 | 5.08e5 | inactive |
| CG13862 | DRSC14712 | – | 7590 | 3.75e5 | inactive |
| CG13045 | DRSC09926 | – | 8514 | 4.23e5 | inactive |
| Ir7a (Ionotropic receptor 7a) | DRSC17866 | – | 6219 | 3.29e5 | inactive |
| AkhR (Adipokinetic hormone receptor) | DRSC03329 | – | 11787 | 5.98e5 | inactive |
| Tengl1 (Testis EndoG-Like 1) | DRSC00481 | – | 7994 | 3.71e5 | inactive |
| CG13437 | DRSC06397 | – | 5422 | 4.33e5 | inactive |
| Ucp4A (Uncoupling protein 4A) | DRSC19996 | – | 4792 | 3.62e5 | inactive |
| CG5446 | DRSC02862 | – | 5895 | 4.15e5 | inactive |
| CG1024 | DRSC12496 | – | 7094 | 3.71e5 | inactive |
| CG15236 | DRSC04970 | – | 5699 | 4.22e5 | inactive |
| CG15236 | DRSC21396 | – | 11212 | 4.42e5 | inactive |
| CG15236 | DRSC23025 | – | 3783 | 3.48e5 | inactive |
| Qsox3 (Quiescin sulfhydryl oxidase 3) | DRSC16096 | – | 7545 | 2.82e5 | inactive |
| DCTN6-p27 (Dynactin 6, p27 subunit) | DRSC02609 | reporter ratio raised past the hit cutoff | 5619 | 78082 | inactive |
| DCTN6-p27 (Dynactin 6, p27 subunit) | DRSC22810 | – | 4008 | 3.25e5 | inactive |
| CG3803 | DRSC04420 | – | 6284 | 3.24e5 | inactive |
| CG4995 | DRSC02801 | – | 43796 | 3.69e5 | inactive |
| Arc42 (Activator-recruited cofactor subunit 42) | DRSC14340 | – | 7514 | 3.73e5 | inactive |
| Arc42 (Activator-recruited cofactor subunit 42) | DRSC15627 | – | 7051 | 3.76e5 | inactive |
| mus81 | DRSC18180 | – | 5251 | 2.96e5 | inactive |
| mus81 | DRSC18644 | – | 5579 | 3.81e5 | inactive |
| CG11581 | DRSC19407 | – | 5923 | 5.19e5 | inactive |
| CG7320 | DRSC10810 | – | 6479 | 3.54e5 | inactive |
| Mau2 | DRSC15550 | – | 7715 | 3.73e5 | inactive |
| hydra | DRSC20497 | – | 6080 | 4.81e5 | inactive |
